Measured values taken from US12209142B2, “SARS-CoV-2 epitope-targeted peptide immunostimulants” (Institute for Systems Biology, priority 2020, dated 2025).
For at least one compound, name, drawing or mass did not settle the structure. Where a SMILES comes first, the peptide text is derived from it. Bridges are numbered along the chain shown (N, C = ends). Triazole bridges read from a SMILES are 1,4-linked. [ ]: non-standard residue; d: D form. Lys(N3) = [N-]=[N+]=NCCCC[C@H](N)C(=O)O; Pra = C#CC[C@H](N)C(=O)O

biological target: SARS-COV-2 spike protein (Severe acute respiratory syndrome coronavirus 2, UniProt P0DTC2); assay: Luminex multiplex binding assay of hit peptides; details: read-out: EC50 of hit peptides

Question: How did the EC50 turn out when `C[C@H]1NC(=O)[C@@H](N)Cc2cn(nn2)CCCC[C@@H](C(N)=O)NC(=O)CNC(=O)[C@@H](CCCNC(=N)N)NC(=O)[C@@H](CCCCN)NC(=O)[C@@H](C)NC1=O` [aakrG] (H-[Pra][dA][dA][dK][dR]G[Lys(N3)]-NH2; triazole 1-7; N-terminus assumed) was run?
Answer: 16.4 nM

Question: Which EC50 does the source give for `C[C@H]1NC(=O)CNC(=O)CNC(=O)[C@@H](N)Cc2cn(nn2)CCCC[C@@H](C(N)=O)NC(=O)[C@@H](CC(N)=O)NC(=O)[C@@H](CCCNC(=N)N)NC1=O` [GGarn] (H-[Pra]GG[dA][dR][dN][Lys(N3)]-NH2; triazole 1-7; N-terminus assumed) here?
Answer: 3.4 nM

Question: For `C[C@H]1NC(=O)[C@@H](N)Cc2cn(nn2)CCCC[C@@H](C(N)=O)NC(=O)[C@@H](CC(=O)O)NC(=O)[C@@H](CCCCN)NC(=O)[C@@H](CC(=O)O)NC(=O)[C@@H](CC(N)=O)NC1=O` [andkd] (H-[Pra][dA][dN][dD][dK][dD][Lys(N3)]-NH2; triazole 1-7; N-terminus assumed), which EC50 is on record?
Answer: 4.2 nM

Question: Which EC50 does the source give for `CC(C)[C@H]1NC(=O)[C@@H](C)NC(=O)[C@@H](N)Cc2cn(nn2)CCCC[C@@H](C(N)=O)NC(=O)[C@@H](CCCNC(=N)N)NC(=O)[C@@H]([C@H](C)O)NC1=O` [avtr] (H-[Pra][dA][dV][dT][dR][Lys(N3)]-NH2; triazole 1-6; N-terminus assumed) here?
Answer: 3.4 nM

Question: For `CC(C)C[C@H]1NC(=O)[C@@H](CC(=O)O)NC(=O)[C@@H](CCCCN)NC(=O)[C@@H](Cc2ccc(O)cc2)NC(=O)[C@@H](N)Cc2cn(nn2)CCCC[C@@H](C(N)=O)NC(=O)[C@@H](CC(=O)O)NC1=O` [ykdld] (H-[Pra][dY][dK][dD][dL][dD][Lys(N3)]-NH2; triazole 1-7; N-terminus assumed), which EC50 is on record?
Answer: 4 nM

Question: For `CC(C)[C@H]1NC(=O)CNC(=O)[C@@H](Cc2ccc(O)cc2)NC(=O)[C@@H](CC(=O)O)NC(=O)[C@@H](N)Cc2cn(nn2)CCCC[C@@H](C(N)=O)NC(=O)[C@@H](CC(=O)O)NC1=O` [dyGvd] (H-[Pra][dD][dY]G[dV][dD][Lys(N3)]-NH2; triazole 1-7; N-terminus assumed), which EC50 is on record?
Answer: 2.9 nM

Question: For `CC(C)C[C@H]1NC(=O)CNC(=O)[C@@H](N)Cc2cn(nn2)CCCC[C@@H](C(N)=O)NC(=O)[C@@H](CC(=O)O)NC(=O)[C@@H](CC(C)C)NC(=O)CNC1=O` [GIGld] (H-[Pra]G[dL]G[dL][dD][Lys(N3)]-NH2; triazole 1-7; N-terminus assumed), which EC50 is on record?
Answer: 4.2 nM

Question: `NC(=O)C[C@H]1NC(=O)[C@@H](Cc2ccc(O)cc2)NC(=O)[C@@H](CC(=O)O)NC(=O)[C@@H](N)Cc2cn(nn2)CCCC[C@@H](C(N)=O)NC(=O)[C@H]2CCCN2C(=O)CNC1=O` [dynGp] (H-[Pra][dD][dY][dN]G[dP][Lys(N3)]-NH2; triazole 1-7; N-terminus assumed) was tested. Which EC50 did it give?
Answer: 2.9 nM

Question: How did the EC50 turn out when `CC(C)[C@H]1NC(=O)[C@H]2CCCN2C(=O)[C@@H](CC(=O)O)NC(=O)[C@@H](N)Cc2cn(nn2)CCCC[C@@H](C(N)=O)NC(=O)[C@@H](CC(=O)O)NC(=O)[C@@H]([C@H](C)O)NC1=O` [dpvtd] (H-[Pra][dD][dP][dV][dT][dD][Lys(N3)]-NH2; triazole 1-7; N-terminus assumed) was run?
Answer: 4.1 nM

Question: Which EC50 does the source give for `CC(C)[C@H]1NC(=O)[C@@H](CCC(=O)O)NC(=O)[C@@H](CCCCN)NC(=O)[C@@H](CO)NC(=O)[C@@H](N)Cc2cn(nn2)CCCC[C@@H](C(N)=O)NC(=O)[C@@H](CC(=O)O)NC1=O` [skevd] (H-[Pra][dS][dK][dE][dV][dD][Lys(N3)]-NH2; triazole 1-7; N-terminus assumed) here?
Answer: 4.6 nM

Question: How did the EC50 turn out when `N=C(N)NCCC[C@H]1NC(=O)[C@@H](CC(=O)O)NC(=O)[C@@H](Cc2ccc(O)cc2)NC(=O)[C@@H](N)Cc2cn(nn2)CCCC[C@@H](C(N)=O)NC(=O)[C@@H](CC(=O)O)NC(=O)[C@@H](CO)NC1=O` [ydrsd] (H-[Pra][dY][dD][dR][dS][dD][Lys(N3)]-NH2; triazole 1-7; N-terminus assumed) was run?
Answer: 4.2 nM

Question: How did the EC50 turn out when `C[C@H](O)[C@H]1NC(=O)[C@@H](N)Cc2cn(nn2)CCCC[C@@H](C(N)=O)NC(=O)CNC(=O)[C@@H](Cc2c[nH]cn2)NC(=O)[C@@H]([C@H](C)O)NC(=O)[C@@H](CO)NC1=O` [tsthG] (H-[Pra][dT][dS][dT][dH]G[Lys(N3)]-NH2; triazole 1-7; N-terminus assumed) was run?
Answer: 3.6 nM

Question: With `N=C(N)NCCC[C@H]1NC(=O)[C@H]2CCCN2C(=O)[C@@H](CCC(=O)O)NC(=O)[C@@H](N)Cc2cn(nn2)CCCC[C@@H](C(N)=O)NC(=O)[C@@H](CC(N)=O)NC(=O)[C@@H](CC(N)=O)NC1=O` [eprnn] (H-[Pra][dE][dP][dR][dN][dN][Lys(N3)]-NH2; triazole 1-7; N-terminus assumed) as the compound, how does the EC50 read?
Answer: 11 nM

Question: For `CC(C)[C@H]1NC(=O)[C@@H](CCCCN)NC(=O)[C@@H](CC(N)=O)NC(=O)[C@@H](N)Cc2cn(nn2)CCCC[C@@H](C(N)=O)NC(=O)CNC(=O)[C@@H](Cc2ccc(O)cc2)NC1=O` [nkvyG] (H-[Pra][dN][dK][dV][dY]G[Lys(N3)]-NH2; triazole 1-7; N-terminus assumed), which EC50 is on record?
Answer: 4.4 nM

Question: How did the EC50 turn out when `C[C@H](O)[C@H]1NC(=O)[C@@H](N)Cc2cn(nn2)CCCC[C@@H](C(N)=O)NC(=O)[C@@H](CC(N)=O)NC(=O)[C@@H](CCCNC(=N)N)NC(=O)[C@@H](C)NC(=O)CNC1=O` [tGarn] (H-[Pra][dT]G[dA][dR][dN][Lys(N3)]-NH2; triazole 1-7; N-terminus assumed) was run?
Answer: 3.1 nM

Question: For `NC(=O)C[C@H]1NC(=O)[C@@H](CCC(=O)O)NC(=O)[C@@H](CO)NC(=O)[C@@H](N)Cc2cn(nn2)CCCC[C@@H](C(N)=O)NC(=O)[C@@H](CC(=O)O)NC(=O)[C@@H](Cc2ccccc2)NC1=O` [senfd] (H-[Pra][dS][dE][dN][dF][dD][Lys(N3)]-NH2; triazole 1-7; N-terminus assumed), which EC50 is on record?
Answer: 3.8 nM

Question: Which EC50 does the source give for `CC(C)C[C@H]1NC(=O)[C@@H](CC(=O)O)NC(=O)[C@@H](CCC(=O)O)NC(=O)[C@@H](N)Cc2cn(nn2)CCCC[C@@H](C(N)=O)NC(=O)[C@@H](CCCCN)NC(=O)[C@@H](C(C)C)NC1=O` [edlvk] (H-[Pra][dE][dD][dL][dV][dK][Lys(N3)]-NH2; triazole 1-7; N-terminus assumed) here?
Answer: 4.3 nM

Question: Which EC50 does the source give for `NC(=O)C[C@H]1NC(=O)[C@@H](N)Cc2cn(nn2)CCCC[C@@H](C(N)=O)NC(=O)[C@@H](Cc2c[nH]cn2)NC(=O)[C@@H](CC(=O)O)NC(=O)[C@H]2CCCN2C(=O)[C@@H](CC(N)=O)NC1=O` [nnpdh] (H-[Pra][dN][dN][dP][dD][dH][Lys(N3)]-NH2; triazole 1-7; N-terminus assumed) here?
Answer: 3.8 nM

Question: With `NCCCC[C@H]1NC(=O)[C@@H](CO)NC(=O)[C@@H](N)Cc2cn(nn2)CCCC[C@@H](C(N)=O)NC(=O)[C@@H](CC(=O)O)NC(=O)[C@@H](Cc2ccccc2)NC(=O)[C@@H](CC(=O)O)NC1=O` [skdfd] (H-[Pra][dS][dK][dD][dF][dD][Lys(N3)]-NH2; triazole 1-7; N-terminus assumed) as the compound, how does the EC50 read?
Answer: 3.2 nM

Question: Which EC50 does the source give for `N=C(N)NCCC[C@H]1NC(=O)[C@@H](Cc2ccc(O)cc2)NC(=O)[C@@H](CC(=O)O)NC(=O)[C@@H](CO)NC(=O)[C@@H](N)Cc2cn(nn2)CCCC[C@@H](C(N)=O)NC(=O)[C@@H](CCC(=O)O)NC1=O` [sdyre] (H-[Pra][dS][dD][dY][dR][dE][Lys(N3)]-NH2; triazole 1-7; N-terminus assumed) here?
Answer: 4.2 nM

Question: With `C[C@H](O)[C@H]1NC(=O)[C@@H](CC(=O)O)NC(=O)[C@@H](Cc2ccccc2)NC(=O)[C@@H](N)Cc2cn(nn2)CCCC[C@@H](C(N)=O)NC(=O)[C@@H](C)NC(=O)[C@@H]([C@H](C)O)NC1=O` [fdtta] (H-[Pra][dF][dD][dT][dT][dA][Lys(N3)]-NH2; triazole 1-7; N-terminus assumed) as the compound, how does the EC50 read?
Answer: 3.2 nM
